In PubChem BioAssay AID248 (DTP/NCI, 2004):
The list shows only some results of the screen, not a fair sample: it gathers tests that were run many times, whatever their T/C, doses with no T/C, and many T/C values between a quarter and a half above the control. Other doses and runs of a compound stand elsewhere. T/C: endpoint of the treated group in % of that of the vehicle group. Some doses have a count of surviving animals in place of a T/C: the source holds a T/C of zero for them, seemingly a mark for toxic or unscored doses. Some doses without a T/C left all or most animals alive at the check, yet need not have been tolerated: survival well below the control is almost never listed, so the zero probably covers shortened survival too. Counts of survivors are from the toxicity check (mostly the fifth day) where no day follows; animals may have died later. Schedules are NCI's codes, read here as Q, the interval in days (D) or hours (H), X, the number of doses. Some entries were tested several times; their values stand side by side, smallest first. Some schedule codes hold Z or #, which are not explained here. Some molecules as drawn cover several salts, stereoisomers or complexes of the source; a dose is that of the sample tested. For survival time, this PubChem deposit counts one and a half times the control or more as active, and values a quarter to a half above the control carry no call in these data; other NCI protocols may use other cut-offs. Brackets with × count equal records among those shown.

Tested on: L1210 leukemia ip in BDF1 mice, survival T/C
Assay: NCI In Vivo Anticancer Drug Screen. Data for tumor model L1210 Leukemia (intraperitoneal) in B6D2F1 (BDF1) mice
Conditions: T/C endpoint: mean survival time, higher T/C = longer survival
[1] = dose: 200.0 mg/kg/injection, schedule: Q01DX001 (ip), vehicle: saline
[2] = dose: 400.0 mg/kg/injection, schedule: Q01DX001 (ip), vehicle: saline
[3] = dose: 200.0 mg/kg/injection, schedule: Q01DX009 (ip), vehicle: Klucel (hydroxypropylcellulose) (HPC)
[4] = dose: 400.0 mg/kg/injection, schedule: Q01DX009 (ip), vehicle: Klucel (hydroxypropylcellulose) (HPC)
[5] = dose: 200.0 mg/kg/injection, schedule: Q01DX001 (ip), vehicle: other
[6] = dose: 400.0 mg/kg/injection, schedule: Q01DX001 (ip), vehicle: other
[7] = dose: 100.0 mg/kg/injection, schedule: Q04DX003 (ip), vehicle: saline with Tween-80
[8] = dose: 200.0 mg/kg/injection, schedule: Q04DX003 (ip), vehicle: saline with Tween-80
[9] = dose: 200.0 mg/kg/injection, schedule: Q04DX003 (ip), vehicle: saline
[10] = dose: 400.0 mg/kg/injection, schedule: Q04DX003 (ip), vehicle: saline
[11] = dose: 100.0 mg/kg/injection, schedule: Q04DX002 (ip), vehicle: saline with Tween-80
[12] = dose: 200.0 mg/kg/injection, schedule: Q04DX002 (ip), vehicle: saline with Tween-80
[13] = dose: 400.0 mg/kg/injection, schedule: Q04DX002 (ip), vehicle: saline with Tween-80
[14] = dose: 60.0 mg/kg/injection, schedule: Q01DX Z (ip), vehicle: saline
[15] = dose: 120.0 mg/kg/injection, schedule: Q01DX Z (ip), vehicle: saline
[16] = dose: 100.0 mg/kg/injection, schedule: Q01DX009 (ip), vehicle: saline
[17] = dose: 100.0 mg/kg/injection, schedule: Q04DX003 (ip), vehicle: Klucel (hydroxypropylcellulose) (HPC)
[18] = dose: 200.0 mg/kg/injection, schedule: Q04DX003 (ip), vehicle: Klucel (hydroxypropylcellulose) (HPC)
[19] = dose: 400.0 mg/kg/injection, schedule: Q04DX003 (ip), vehicle: Klucel (hydroxypropylcellulose) (HPC)
[20] = dose: 25.0 mg/kg/injection, schedule: Q01DX009 (ip), vehicle: saline with Tween-80
[21] = dose: 50.0 mg/kg/injection, schedule: Q01DX009 (ip), vehicle: saline with Tween-80
[22] = dose: 400.0 mg/kg/injection, schedule: Q04DX003 (ip), vehicle: saline with Tween-80
[23] = dose: 400.0 mg/kg/injection, schedule: Q01DX001 (ip), vehicle: Klucel (hydroxypropylcellulose) (HPC)
[24] = dose: 200.0 mg/kg/injection, schedule: Q01DX009 (ip), vehicle: saline
[25] = dose: 400.0 mg/kg/injection, schedule: Q01DX009 (ip), vehicle: saline

SMILES: CC1(C)N=C(N)N=C(N)N1c1ccc(Cc2ccccc2)cc1
- survivor count (dose: 100.0 mg/kg/injection, schedule: Q01DX001 (ip), vehicle: saline): 0 of 6
- survivor count [1]: 0 of 6
- survivor count [2]: 0 of 6

SMILES: Cc1ccc(N)c2cccnc12
- survivor count [3]: 6 of 6
- survivor count [4]: 1 of 6

SMILES: Cn1c(=O)cc(CCl)c2ccccc21
- survivor count [5]: 0 of 4
- survivor count [6]: 0 of 4

SMILES: CC(N)CCc1ccccc1 (stereo not given)
- survivor count [7]: 1 of 6
- survivor count (dose: 100.0 mg/kg/injection, schedule: Q04DX003 (ip), vehicle: saline): 1 of 6
- survivor count [1]: 1 of 6
- survivor count [8]: 1 of 6
- survivor count [9]: 0 of 6
- survivor count [2]: 0 of 6
- survivor count [10]: 0 of 6

SMILES: Nc1cc([N+](=O)[O-])ccc1Cl
- survivor count [4]: 1 of 6

SMILES: O=C1C(Cl)(Cl)C(=O)C(Cl)(Cl)C(=O)C1(Cl)Cl
- survivor count [11]: 0 of 3
- survivor count [12]: 0 of 3
- survivor count [13]: 0 of 3

SMILES: Cc1ccc(S(=O)(=O)O)cc1.[Ag]
- survivor count (dose: 100.0 mg/kg/injection, schedule: Q04DX002 (ip), vehicle: saline + alcohol): 2 of 3
- survivor count [11]: 1 of 3
- survivor count [12]: 0 of 3
- survivor count [13]: 0 of 3

SMILES: O=C(Nc1ccc(C2=NCCN2)cc1)Nc1cc(C(=O)Nc2ccc(C3=NCCN3)cc2)ccc1C(=O)Nc1ccc(C2=NCCN2)cc1
- survivor count (dose: 30.0 mg/kg/injection, schedule: Q01DX Z (ip), vehicle: saline): 0 of 6
- survivor count [14]: 0 of 6
- survivor count [15]: 0 of 6
- survivor count (dose: 150.0 mg/kg/injection, schedule: Q01DX Z (oral), vehicle: saline): 3 of 6

SMILES: O=C(CNC(=O)c1ccc(C(=O)NCC(=O)Nc2ccc(C3=NCCN3)cc2)cc1)Nc1ccc(C2=NCCN2)cc1
- T/C (dose: 60.0 mg/kg/injection, schedule: Q01DX001 (ip), vehicle: methylcellulose (MC)): 131 % of control
- T/C (dose: 300.0 mg/kg/injection, schedule: Q01DX001 (ip), vehicle: methylcellulose (MC)): 134 % of control (2×)
- survivor count (dose: 450.0 mg/kg/injection, schedule: Q01DX Z (ip), vehicle: carboxymethylcellulose (CMC)): 3 of 6

SMILES: CCCCOC(=O)c1[nH]cnc1/N=N/N(C)CCCC
- survivor count [6]: 1 of 6

SMILES: Cc1cccc(SC(=O)Nc2cccc(Cl)c2C)c1
- survivor count (dose: 200.0 mg/kg/injection, schedule: Q01DX009 (ip), vehicle: gum acacia): 5 of 6
- survivor count (dose: 400.0 mg/kg/injection, schedule: Q01DX009 (ip), vehicle: gum acacia): 0 of 6

SMILES: CC(C)(C)C1CC[N-]CC1.CC(C)(C)C1CC[N-]CC1.[Cl][Pt+2]([Cl])([Cl])[Cl]
- survivor count (dose: 50.0 mg/kg/injection, schedule: Q01DX009 (ip), vehicle: saline): 1 of 6
- survivor count [16]: 0 of 6
- survivor count [9]: 2 of 6
- survivor count [10]: 0 of 6

SMILES: BrCc1ccc2ccccc2c1Br
- survivor count [17]: 6 of 6
- survivor count [18]: 1 of 6
- survivor count [19]: 0 of 6

SMILES: N#CC1(C#N)C2C=CC(C2)C1(C#N)C#N
- survivor count [20]: 3 of 6 and 6 of 6
- survivor count [21]: 1 of 6
- survivor count (dose: 100.0 mg/kg/injection, schedule: Q01DX009 (ip), vehicle: saline with Tween-80): 0 of 6
- survivor count (dose: 200.0 mg/kg/injection, schedule: Q01DX009 (ip), vehicle: saline with Tween-80): 0 of 6
- survivor count (dose: 400.0 mg/kg/injection, schedule: Q01DX009 (ip), vehicle: saline with Tween-80): 0 of 6

SMILES: CNC(=S)NC1CC(OC2CC(O)(C(C)=O)Cc3c(O)c4c(c(O)c32)C(=O)c2c(OC)cccc2C4=O)OC(C)C1O (stereo not given)
- T/C (dose: 12.5 mg/kg/injection, schedule: Q01DX009 (ip), vehicle: saline with Tween-80): 125 % of control
- T/C [20]: 128 % of control
- T/C [21]: 126 % of control
- T/C [7]: 129 % of control

SMILES: CCCCC(CC)CO.[Ti] (stereo not given)
- survivor count [22]: 0 of 6

SMILES: CC1=C(N2CC2)C(=O)c2ccccc2C1=O
- survivor count (dose: 200.0 mg/kg/injection, schedule: Q01DX001 (ip), vehicle: Klucel (hydroxypropylcellulose) (HPC)): 0 of 6
- survivor count [23]: 0 of 6

SMILES: CC(C)=CCC/C(C)=C/COC(N)=O
- survivor count [16]: 2 of 6
- survivor count [24]: 0 of 6
- survivor count [25]: 6 of 6
- survivor count [13]: 0 of 3 and 3 of 3

SMILES: CCCCCCCCCCCCCCCCCOc1ccc(Sc2ccc([N+](=O)[O-])cc2)cc1
- survivor count [17]: 6 of 6
- survivor count [19]: 6 of 6

SMILES: O=C1C=CC(=O)N1c1ccc(Br)cc1Cl
- survivor count (dose: 6.25 mg/kg/injection, schedule: Q04DX003 (ip), vehicle: saline with Tween-80): 6 of 6
- survivor count (dose: 12.5 mg/kg/injection, schedule: Q04DX003 (ip), vehicle: saline with Tween-80): 6 of 6
- survivor count (dose: 100.0 mg/kg/injection, schedule: Q01DX009 (ip), vehicle: Klucel (hydroxypropylcellulose) (HPC)): 0 of 6
- survivor count [7]: 0 of 6
- survivor count [3]: 0 of 6
- survivor count [18]: 3 of 6
- survivor count [8]: 0 of 6
- survivor count [4]: 0 of 6
- survivor count [19]: 0 of 6
- survivor count [22]: 0 of 6

SMILES: NC(N)=N/N=C/c1cccc(F)c1
- survivor count [14]: 0 of 6
- survivor count (dose: 60.0 mg/kg/injection, schedule: Q01DX Z (oral), vehicle: saline): 2 of 6
- survivor count [15]: 0 of 6
- survivor count (dose: 120.0 mg/kg/injection, schedule: Q01DX Z (oral), vehicle: saline): 0 of 6

SMILES: CN(C)C1C2C(CS2(=O)=O)C1(C)C (stereo not given)
- survivor count (dose: 300.0 mg/kg/injection, schedule: Q01DX001 (ip), vehicle: carboxymethylcellulose (CMC)): 1 of 6

SMILES: COc1ccc(CC2=NCCc3cc(OC)c(OC)cc32)cc1OC
- survivor count [24]: 0 of 6
- survivor count [9]: 0 of 6 and 1 of 6
- survivor count (dose: 300.0 mg/kg/injection, schedule: Q01DX001 (ip), vehicle: saline): 0 of 6
- survivor count [25]: 0 of 6
- survivor count [10]: 0 of 6

SMILES: Cc1cccc(S(=O)(=O)F)c1
- survivor count (dose: 400.0 mg/kg/injection, schedule: Q04DX003 (ip), vehicle: acetone): 1 of 6

SMILES: CNS(=O)(=O)c1ccc(NC(=O)CI)cc1
- survivor count (dose: 25.0 mg/kg/injection, schedule: Q04DX003 (ip), vehicle: other): 3 of 6
- survivor count (dose: 50.0 mg/kg/injection, schedule: Q04DX003 (ip), vehicle: other): 0 of 6
- survivor count (dose: 100.0 mg/kg/injection, schedule: Q01DX001 (ip), vehicle: other): 2 of 6
- survivor count [5]: 2 of 6
- survivor count [6]: 0 of 6

SMILES: C1=NCCc2cc3[nH]c4ccccc4c3cc21
- survivor count [18]: 1 of 6
- survivor count [23]: 0 of 6
